PubChem BioAssay AID1259272 – Sanger Institute – 2017
This is an unselected part of 794 reagents tested. 7 of all reagents (0.88%) count as active. 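Essential calls reflect knock-down without drug only, not synergy with drugs; drug exposure length not given.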 No viability above 1 is reported: the scale is capped. Further read-outs or replicates are left out here. No sequences are given here. The record does not give: the amount of reagent, the time to read-out.

Test: 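Find kinases needed for SW1116 growth and partners for drug combinations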 (primary screen)
Cells: SW1116 human colorectal cancer cells
Knock-down reagent: siRNA pool against human genes
Treatment: anchor drugs BYL719 (1 µM), cetuximab (5 µg/ml) or trametinib (10 nM), or DMSO vehicle; exposure length not given
Detection: 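Cell survival as a fraction of wells given a non-targeting pool, averaged over replicates; robust z-score without drug; synergy score for each of BYL719, cetuximab and trametinib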
Reading the numbers: viability z-score, no drug: higher = more cells remaining; strongly negative means essential gene; viability, no drug: higher = more viable cells; synergy score with BYL719: higher = stronger synthetic-lethal synergy with the drug
Hit rule: 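Called essential if the drug-free knock-down gives a robust viability z-score below -3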
Calls: active = essential (knock-down alone); inactive = no change

viability z-score, no drug	viability, no drug (fraction of control)	synergy score with BYL719	activity call	target
-0.575	0.849	-0.0446	inactive	TSSK6 (testis specific serine kinase 6)
0.842	1	-0.0106	inactive	CHUK
-1.86	0.712	-0.0597	inactive	IRAK3 (interleukin 1 receptor associated kinase 3)
0.842	1	-0.0131	inactive	GK2 (glycerol kinase 2)
0.316	0.944	-0.128	inactive	PKN1 (protein kinase N1)
0.842	1	-0.0641	inactive	PHKA1 (phosphorylase kinase regulatory subunit alpha 1)
0.842	1	-0.0144	inactive	RIOK3 (RIO kinase 3)
0.842	1	0.0196	inactive	PCK2 (phosphoenolpyruvate carboxykinase 2, mitochondrial)
0.267	0.939	0.00393	inactive	FGFR2 (fibroblast growth factor receptor 2)
0.842	1	-0.0788	inactive	ULK3 (unc-51 like kinase 3)
0.133	0.925	-0.0892	inactive	MAP3K4 (mitogen-activated protein kinase kinase kinase 4)
-1.9	0.707	-0.296	inactive	NADK (NAD kinase)
0.842	1	-0.02	inactive	STAG2 (STAG2 cohesin complex component)
0.842	1	-0.0212	inactive	CDK9 (cyclin dependent kinase 9)
-0.957	0.808	-0.242	inactive	YES1 (YES proto-oncogene 1, Src family tyrosine kinase)
0.842	1	-0.0788	inactive	GAK (cyclin G associated kinase)
0.0115	0.912	0.00618	inactive	IDH2 (isocitrate dehydrogenase (NADP(+)) 2)
0.842	1	-0.0105	inactive	SRGAP3 (SLIT-ROBO Rho GTPase activating protein 3)
-0.754	0.83	-0.0698	inactive	MAP3K3 (mitogen-activated protein kinase kinase kinase 3)
-0.257	0.883	-0.0184	inactive	TAOK3 (TAO kinase 3)
0.842	1	0.000685	inactive	STK17B (serine/threonine kinase 17b)
-0.224	0.887	-0.103	inactive	BMP2K (BMP2 inducible kinase)
-1.35	0.767	-0.0976	inactive	RUNX1 (RUNX family transcription factor 1)
-0.419	0.866	-0.134	inactive	DAPK1 (death associated protein kinase 1)
-1.03	0.801	-0.125	inactive	INSRR (insulin receptor related receptor)
0.286	0.941	0.13	inactive	ALK (ALK receptor tyrosine kinase)
-1.22	0.78	-0.107	inactive	PRKCB (protein kinase C beta)
0.23	0.935	-0.0248	inactive	MAP3K20 (mitogen-activated protein kinase kinase kinase 20)
0.672	0.982	-0.0172	inactive	PIP5K1C (phosphatidylinositol-4-phosphate 5-kinase type 1 gamma)
0.607	0.975	-0.0278	inactive	FLT3 (fms related receptor tyrosine kinase 3)
-1.03	0.801	-0.0531	inactive	NTRK1 (neurotrophic receptor tyrosine kinase 1)
0.517	0.965	-0.106	inactive	TTBK2 (tau tubulin kinase 2)
0.416	0.955	-0.0197	inactive	PXK (PX domain containing serine/threonine kinase like)
-0.179	0.891	-0.0693	inactive	ACVR1B (activin A receptor type 1B)
0.121	0.923	-0.0898	inactive	ARID1A (AT-rich interaction domain 1A)
0.124	0.924	0.00642	inactive	MSR1 (macrophage scavenger receptor 1)
0.842	1	-0.0119	inactive	FLT1 (fms related receptor tyrosine kinase 1)
0.842	1	-0.0788	inactive	ACVR1C (activin A receptor type 1C)
-1.65	0.735	-0.264	inactive	MYO3B (myosin IIIB)
0.842	1	0.0305	inactive	PFKL (phosphofructokinase, liver type)
0.745	0.99	0.00321	inactive	ELP1 (elongator acetyltransferase complex subunit 1)
-0.64	0.842	-0.115	inactive	PDPK1 (3-phosphoinositide dependent protein kinase 1)
-0.028	0.907	0.017	inactive	MERTK (MER proto-oncogene, tyrosine kinase)
-1.12	0.791	-0.0446	inactive	NTN4 (netrin 4)
-0.201	0.889	-0.0835	inactive	SRPK2 (SRSF protein kinase 2)
0.842	1	-0.0788	inactive	PPP2R1A (protein phosphatase 2 scaffold subunit Aalpha)
0.842	1	-0.0598	inactive	JAK3 (Janus kinase 3)
0.842	1	-0.0207	inactive	AK7 (adenylate kinase 7)
-2.35	0.66	-0.198	inactive	PNKP (polynucleotide kinase 3'-phosphatase)
0.842	1	-0.035	inactive	TRPM6

7 entries already listed, ordered by “viability z-score, no drug”, ascending:
viability z-score, no drug	viability, no drug (fraction of control)	synergy score with BYL719	activity call	target
-1.65	0.735	-0.264	inactive	MYO3B (myosin IIIB)
-0.64	0.842	-0.115	inactive	PDPK1 (3-phosphoinositide dependent protein kinase 1)
0.124	0.924	0.00642	inactive	MSR1 (macrophage scavenger receptor 1)
0.745	0.99	0.00321	inactive	ELP1 (elongator acetyltransferase complex subunit 1)
0.842	1	-0.0119	inactive	FLT1 (fms related receptor tyrosine kinase 1)
0.842	1	-0.0788	inactive	ACVR1C (activin A receptor type 1C)
0.842	1	0.0305	inactive	PFKL (phosphofructokinase, liver type)
